# Measurements from PubChem BioAssay AID504834 (National Center for Advancing Translational Sciences (NCATS), 2011).
# Hit rate of the full screen: of about 320,000 compounds, about 22,000 (6.9%) were called active. The shares of active, inactive and inconclusive entries below differ from those in the screen. Calls come from the whole dose curve; as a rule, active = well fitted inhibition curve with a large enough effect; inconclusive = small, poorly fitted or top-dose-only effect, or another doubt; inactive = no such curve, though single readings can be large or run the other way. Potencies beside an inconclusive call are fits to weak or partial responses and may not hold up. Where a SMILES comes first, the peptide text is derived from it. [ ]: non-standard residue; d: D form. The star is where a group is joined. Phe(4-Me) = Cc1ccc(C[CH](N)C(=O)O)cc1; Bz = O=C(c1ccccc1)*
# Experiment: Primary qHTS for delayed death inhibitors of the malarial parasite plastid, 96 hour incubation
# Conditions: P. falciparum luciferase reporter growth; series mostly up to 28.7 µM
# How it was run: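 Two parasite generations (96 h, 37 C, 5% CO2) of compound exposure in infected erythrocytes (0.05% parasitemia, 2% hematocrit). Luciferase-reporter P. falciparum; decreased luminescence indicates inhibited growth, aimed at apicoplast-acting delayed death.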
# Potency is the fitted concentration of half-maximal effect.
row,SMILES,Potency
1,COc1cc(CN2CCc3c([nH]c4ccccc34)C2)cc(OC)c1,"inconclusive: 18.5 µM [inhibitor, single point]"
2,COc1ccc(/C=N/NC(=O)C(O)(c2ccccc2)c2ccccc2)cc1OC,inactive
3,Cc1ccc(Nc2cc(C)nc(-c3ccccc3O)n2)cc1,inactive
4,Cn1nc(-c2ccccc2)c(CO)c1Oc1cccc(C(F)(F)F)c1,"inconclusive: 18.5 µM [inhibitor, single point]"
5,Cc1nnc(NC(=O)c2cc(S(=O)(=O)N3CCCCC3)ccc2Cl)s1,"inconclusive: 18.5 µM [inhibitor, single point]"
6,O=C(O)Cc1cn(Cc2ccc(F)cc2)c2ccccc12,inactive
7,CCOc1ccc(NC(=O)CN2CCN(CC(=O)Nc3ccc(OC)cc3OC)CC2)cc1,"inconclusive: 13.1 µM [inhibitor, partial curve]"
8,Cc1ccc(NC(=O)c2cc(-c3ccco3)on2)cc1C,"inconclusive: 14.7 µM [inhibitor, partial curve, poor fit]"
9,COc1ccc(CN2CCNC(=O)C2CC(=O)NC2CCCCCC2)c(C)c1C (configuration not stated),inactive
10,CC(=O)C1=C(C)OC(N)=C(C#N)C1c1cccc2ccccc12 (configuration not stated),inactive
11,CCOc1ccc(/C=C2\SC(N3CCc4ccccc4C3)=NC2=O)cc1,"inconclusive: 14.7 µM [inhibitor, single point]"
12,O=C(CCN1C(=O)c2ccccc2S1(=O)=O)Nc1ccccc1,inactive
13,NC(=O)C(c1cccc(Cl)c1)c1ncc(C(F)(F)F)cc1Cl (configuration not stated),"inconclusive: 18.5 µM [inhibitor, single point]"
14,COc1ccc(S(=O)(=O)N2CCN(C(c3ccccc3)c3ccccc3)CC2)cc1NC(C)=O,"inconclusive: 10.4 µM [inhibitor, single point]"
15,O=C(Cc1ccccc1)N1CCN(C/C=C/c2ccccc2)CC1,active: 3.29 µM
16,Cc1cccc(Nc2nc(N)c([N+](=O)[O-])c(N3CCN(C)CC3)n2)c1,"inconclusive: 3.7 µM [inhibitor, partial curve, poor fit]"
17,COc1ccc([C@@H]2C[C@@H](c3ccccc3)Oc3cc(C)cc(C)c32)cc1,"inconclusive: 18.5 µM [inhibitor, single point]"
18,O=C(Nc1ccc(Cl)cc1)Nc1ccc(Cl)c(Cl)c1,active: 2.69 µM
19,O=C(O)c1ccccc1C1=Nc2ccc(O)cc2Oc2cc(O)ccc21,"inconclusive: 10.4 µM [inhibitor, single point]"
20,COc1ccc(C(=O)NC2CC2)cc1OC1CCN(Cc2cc(C)c(C)cc2C)CC1,"inconclusive: 18.5 µM [inhibitor, single point]"
21,CN1c2ccc(Cl)cc2C(=O)NC1C1CC=CCC1 (configuration not stated),active: 11.7 µM
22,O=[N+]([O-])c1cc(/C=N/O)ccc1N1CCCC1,inactive
23,CC(=O)Nc1ccc(NC(=O)C(C)OC(=O)C2CCCC2)cc1 (configuration not stated),"inconclusive: 1.65 µM [inhibitor, single point]"

# Among those listed so far, 3 have four or more nitrogen atoms.
row,SMILES,Potency
5,Cc1nnc(NC(=O)c2cc(S(=O)(=O)N3CCCCC3)ccc2Cl)s1,"inconclusive: 18.5 µM [inhibitor, single point]"
7,CCOc1ccc(NC(=O)CN2CCN(CC(=O)Nc3ccc(OC)cc3OC)CC2)cc1,"inconclusive: 13.1 µM [inhibitor, partial curve]"
16,Cc1cccc(Nc2nc(N)c([N+](=O)[O-])c(N3CCN(C)CC3)n2)c1,"inconclusive: 3.7 µM [inhibitor, partial curve, poor fit]"

# Next part

row,SMILES,Potency
1,COc1ccc(Br)cc1S(=O)(=O)Nc1ncccc1C,"inconclusive: 16.5 µM [inhibitor, single point]"
2,CC(=O)C1=C(C)OC(N)=C(C#N)C1c1cc2cccc(C)c2nc1Cl (configuration not stated),"inconclusive: 0.165 µM [inhibitor, full curve, poor fit]"
3,CCn1c(C(=O)N2CCC(C(=O)NCc3ccc(OC)cc3)CC2)cc2sccc21,"inconclusive: 10.4 µM [inhibitor, partial curve]"
4,O=C(Nc1ccc(S(=O)(=O)Nc2cnc3ccccc3n2)cc1)c1cccc(OC(F)F)c1,inactive
5,COc1ccccc1CNC(=O)C1CCC(=O)N(CCCc2ccccc2)C1 (configuration not stated),"inconclusive: 13.1 µM [inhibitor, single point]"
6,O=C(CSc1nnc(SCc2ccccc2)s1)N/N=C/C=C/c1ccccc1[N+](=O)[O-],inactive
7,Cc1cccc(CSC(Nc2ccc(F)cc2)=C(C#N)C#N)c1,"inconclusive: 16.5 µM [inhibitor, single point]"
8,O=C(CCC(=O)N1CCOc2ccccc21)N1CCCCC1,"inconclusive: 0.0828 µM [inhibitor, full curve, poor fit]"
9,COc1ccc(C(=O)C2CCCN(Cc3cnc(N4CCOCC4)s3)C2)c(OC)c1 (configuration not stated),"inconclusive: 20.8 µM [inhibitor, single point]"
10,CC(C)c1ccc(NC2CCCN(C(=O)CN3CCCC3=O)C2)cc1 (configuration not stated),inactive
11,CCOC(=O)N1CCN(C(=O)c2ccc3nc4ccsc4c(=O)n3c2)CC1,active: 8.28 µM
12,COC(=O)C1=C(C)NC(=O)/C1=C\c1cc(C)n(-c2cccc(C)c2)c1C,"inconclusive: 4.15 µM [inhibitor, single point]"
13,COc1ccc(S(=O)(=O)CCC(=O)NCc2ccc(C)o2)cc1,inactive
14,COc1ccc(OCC(=O)NNC(=O)c2cccc(O)c2)cc1,"inconclusive: 16.5 µM [inhibitor, single point]"
15,O=C(O)CCCn1cc(NC(=O)COc2ccccc2F)cn1,"inconclusive: 16.5 µM [inhibitor, partial curve, poor fit]"
16,CN(CC(=O)Nc1cccc(F)c1)C(=O)c1cc(=O)[nH]c2ccccc12,"inconclusive: 18.5 µM [inhibitor, single point]"
17,CCN(CC)S(=O)(=O)c1ccc2c(c1)N(CC(=O)NCCCN1CC(C)CC(C)C1)C(=O)CO2 (configuration not stated),"inconclusive: 13.1 µM [inhibitor, single point]"
18,CC(C)c1ccc(C(=O)Nc2nnc(S(=O)(=O)N3CCCCC3)s2)cc1,"inconclusive: 18.5 µM [inhibitor, single point]"
19,COc1cc2c(cc1OC)C(c1ccc(OC)c(OC)c1OC)CC(=O)N2 (configuration not stated),"inconclusive: 18.5 µM [inhibitor, single point]"
20,C/C(=N\NC(=O)c1nnn(-c2nonc2N)c1CN(C)c1ccccc1)c1ccccc1O,"inconclusive: 18.5 µM [inhibitor, single point]"
21,CSC(C1CCCC1)n1nnc2ccccc21 (configuration not stated),"inconclusive: 10.4 µM [inhibitor, single point]"
22,CCOc1ccc(/C=N/NC(=O)c2ccc(O)cc2)cc1CN1CC2CC(C1)c1cccc(=O)n1C2 (configuration not stated),"inconclusive: 2.33 µM [inhibitor, full curve]"
23,CC(C)C[C@@H](N)C(=O)O,"inconclusive: 10.7 µM [inhibitor, partial curve, poor fit]"

row,SMILES,Potency
1,CCn1c(=O)c(=O)[nH]c2cc(C(=O)N(C)Cc3ccc(OC)c(F)c3)ccc21,"inconclusive: 5.22 µM [inhibitor, partial curve, poor fit]"
2,O=C(N/N=C/c1ccc([N+](=O)[O-])o1)c1cn2ccc3ccccc3c2n1,"inconclusive: 0.104 µM [inhibitor, full curve, poor fit]"
3,COc1ccc(-c2cc([C@H]3[C@@H]4C=CCC[C@@]4(C)C(=O)N3Cc3ccccc3)ccc2F)cc1,"inconclusive: 18.5 µM [inhibitor, single point]"
4,O=C1N/C(=N/O)S/C1=C/c1cccc([N+](=O)[O-])c1,"inconclusive: 10.4 µM [inhibitor, single point]"
5,COc1ccc(CCNC(=O)CC2SC(=NCCC(C)C)NC2=O)cc1OC (configuration not stated),"inconclusive: 14.7 µM [inhibitor, single point]"
6,Cc1ccc(CC(NC(=O)c2ccccc2)C(=O)NC(Cc2ccccc2)C(=O)O)cc1 (configuration not stated) (Bz-[Phe(4-Me)]-Phe-OH; configuration not given here),"inconclusive: 23.3 µM [inhibitor, partial curve, poor fit]"
7,COc1ccccc1NS(=O)(=O)c1cc(NC(=O)Nc2ccc(Cl)cc2Cl)ccc1N1CCCCC1,"inconclusive: 13.1 µM [inhibitor, single point]"
8,O=[N+]([O-])c1ccc(S(=O)(=O)CC(CN2CCOCC2)N2CCOCC2)cc1 (configuration not stated),"inconclusive: 10.4 µM [inhibitor, single point]"
9,CN(Cc1ccc(Br)s1)C(=O)CNC(=O)c1ccc2c(c1)OCO2,"inconclusive: 18.5 µM [inhibitor, single point]"
10,O=C(c1ccc(S(=O)(=O)N2CCCCC2)cc1)N(c1ccccn1)C1CCCCC1,inactive
11,O=C(CCCO)N/N=C/c1cc(Br)ccc1O,"inconclusive: 9.28 µM [inhibitor, single point]"
12,CC1CN(C(=O)c2ccccc2)c2ccccc2NC1=O (configuration not stated),"inconclusive: 0.738 µM [inhibitor, single point]"
13,CCN1C(=O)CC(NNC(=O)c2ccc(Cl)cc2)C1=O (configuration not stated),inactive
14,CCOc1ccc(Cc2c(Cl)nc(SC)nc2N(C)C)cc1,"inconclusive: 10.4 µM [inhibitor, single point]"
15,CCOC(=O)C(CCOc1cccc(CC)c1)C(=O)OCC,"inconclusive: 18.5 µM [inhibitor, single point]"
16,Cc1cc(C)c2nc(C(F)(F)F)nc(N3CCN(C(=O)c4ccco4)CC3)c2c1,"inconclusive: 13.1 µM [inhibitor, partial curve]"
17,CC(OC(=O)CCN1C(=O)C2CC=CCC2C1=O)C(=O)Nc1cccc(C#N)c1 (configuration not stated),inactive
18,CCCN(CC(=O)Nc1ccccc1OC)C(=O)CCC(=O)c1ccc(OCC)cc1,"inconclusive: 18.5 µM [inhibitor, single point]"
19,O=C(Cc1cccs1)Nc1ccc(N2CCOCC2)cc1,inactive
20,COCc1cc(C)nc(OCC(=O)N/N=C/c2ccc(-c3cc([N+](=O)[O-])ccc3Cl)o2)c1C#N,"inconclusive: 18.5 µM [inhibitor, single point]"
21,CCNc1nc(SC(C)C(=O)OC)nc(N(C)C)n1 (configuration not stated),"inconclusive: 0.37 µM [inhibitor, partial curve, poor fit]"
